Data reported in publication PMC10011603.
Results are given in words; binding and its absence hold for the method and conditions named. Some binding calls cover weakened binding; strength is not graded here.

Protein sequences, listed by entry. Tags and fused reporters are not part of them.
UniProt P33176: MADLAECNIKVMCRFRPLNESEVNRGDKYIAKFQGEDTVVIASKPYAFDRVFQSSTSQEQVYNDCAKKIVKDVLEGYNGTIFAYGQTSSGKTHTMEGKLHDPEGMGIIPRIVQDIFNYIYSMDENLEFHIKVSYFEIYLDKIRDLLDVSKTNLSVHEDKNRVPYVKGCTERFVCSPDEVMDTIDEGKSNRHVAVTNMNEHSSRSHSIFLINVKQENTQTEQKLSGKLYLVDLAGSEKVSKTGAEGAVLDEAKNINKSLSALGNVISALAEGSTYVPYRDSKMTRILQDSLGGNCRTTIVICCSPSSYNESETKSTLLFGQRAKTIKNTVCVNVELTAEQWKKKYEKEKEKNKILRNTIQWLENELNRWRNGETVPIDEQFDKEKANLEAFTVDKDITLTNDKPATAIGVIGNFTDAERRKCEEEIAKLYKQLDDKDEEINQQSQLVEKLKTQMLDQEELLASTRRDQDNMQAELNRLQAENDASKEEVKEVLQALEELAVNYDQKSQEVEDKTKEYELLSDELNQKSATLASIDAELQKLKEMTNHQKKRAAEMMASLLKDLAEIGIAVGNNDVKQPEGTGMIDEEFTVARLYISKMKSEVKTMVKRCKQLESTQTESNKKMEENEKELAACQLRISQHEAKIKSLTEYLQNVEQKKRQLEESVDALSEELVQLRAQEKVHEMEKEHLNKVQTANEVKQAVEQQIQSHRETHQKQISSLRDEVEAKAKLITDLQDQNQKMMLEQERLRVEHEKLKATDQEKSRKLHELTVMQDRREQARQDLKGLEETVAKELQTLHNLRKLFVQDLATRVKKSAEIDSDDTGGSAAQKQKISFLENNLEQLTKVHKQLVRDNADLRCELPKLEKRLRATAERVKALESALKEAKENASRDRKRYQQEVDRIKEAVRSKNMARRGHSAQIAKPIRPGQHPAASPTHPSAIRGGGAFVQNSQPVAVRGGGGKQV

Biological target: full-length human kinesin-1 heavy chain (KIF5B-GFP-SNAPf) (human) (UniProt P33176)
Test: co-IP; purified proteins, 10 µg each, premixed on ice; KIF5B-GFP-SNAPf with TRAK1 1-360 or TRAK2 1-360 on GFP-Trap beads; MB buffer (30 mM HEPES, 5 mM MgSO4, 1 mM EGTA, pH 7.0) with 100 mM NaCl, 1 mg/ml BSA; 2 h on ice; with or without 10 nM MAP7; in Fig. 5b Miro1 1-592 added; both purified

B1: TRAK2^1–360 (domain or fragment, UniProt O60296 1-360)
chain: MSQSQNAIFTSPTGEENLMNSNHRDSESITDVCSNEDLPEVELVSLLEEQLPQYRLKVDTLFLYENQDWTQSPHQRQHASDALSPVLAEETFRYMILGTDRVEQMTKTYNDIDMVTHLLAERDRDLELAARIGQALLKRNHVLSEQNESLEEQLGQAFDQVNQLQHELCKKDELLRIVSIASEESETDSSCSTPLRFNESFSLSQGLLQLEMLQEKLKELEEENMALRSKACHIKTETVTYEEKEQQLVSDCVKELRETNAQMSRMTEELSGKSDELIRYQEELSSLLSQIVDLQHKLKEHVIEKEELKLHLQASKDAQRQLTMELHELQDRNMECLGMLHESQEEIKELRSRSGPTAHL
modifications: LD555 or LD655 dye on the SNAP-tag in motility assays
With B1 the binding was “binds weakly”.
